We go through three substances from article PMC7481404.

Protein sequences, listed by entry. Tags and fused reporters are not part of them.
UniProt O60260: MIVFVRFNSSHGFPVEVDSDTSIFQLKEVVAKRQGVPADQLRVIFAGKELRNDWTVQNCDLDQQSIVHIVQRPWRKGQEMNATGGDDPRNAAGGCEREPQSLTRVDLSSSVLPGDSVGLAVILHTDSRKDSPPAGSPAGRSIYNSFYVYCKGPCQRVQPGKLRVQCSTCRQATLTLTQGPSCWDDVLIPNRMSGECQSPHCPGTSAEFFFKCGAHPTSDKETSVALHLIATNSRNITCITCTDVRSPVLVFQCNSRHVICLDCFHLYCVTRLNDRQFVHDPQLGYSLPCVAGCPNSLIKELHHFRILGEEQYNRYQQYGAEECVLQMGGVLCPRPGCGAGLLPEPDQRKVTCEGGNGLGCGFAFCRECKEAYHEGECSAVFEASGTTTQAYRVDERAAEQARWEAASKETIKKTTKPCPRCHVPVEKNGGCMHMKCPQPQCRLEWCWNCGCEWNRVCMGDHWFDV
UniProt P10415: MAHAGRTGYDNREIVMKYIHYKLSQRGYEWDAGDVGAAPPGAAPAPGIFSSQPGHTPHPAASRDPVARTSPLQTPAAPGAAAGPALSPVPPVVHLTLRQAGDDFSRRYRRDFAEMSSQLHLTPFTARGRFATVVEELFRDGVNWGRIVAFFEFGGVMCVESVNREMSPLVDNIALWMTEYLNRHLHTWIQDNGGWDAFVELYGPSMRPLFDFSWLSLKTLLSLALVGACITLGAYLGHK

The target in assay [1] is PARK2 (endogenous, MDA-MB-134-VI) (human (endogenous in MDA-MB-134-VI)) (UniProt O60260). Description: co-IP; endogenous proteins, MDA-MB-134-VI cells treated with docetaxel or vinorelbine for 24 h; lysate with anti-IgG, anti-BCL-2 or anti-PARK2 for 2 h, then protein G agarose overnight; washed three times with NETN buffer.
The target in assay [2] is FLAG-tagged wild-type PARK2 (human) (UniProt O60260). As to the kind of experiment: co-IP; MCF-7 cells stably expressing FLAG-PARK2 or vector, with or without docetaxel (1 nM) 24 h (vinorelbine too); RIPA lysate; anti-FLAG agarose overnight at 4°C; washed three times with NETN buffer; western blot. (In general: A western blot detects proteins with antibodies after separation by electrophoresis.)

Results are given in words; binding and its absence hold for the method and conditions named. In cells and extracts the contact can be indirect. Some results given as binding are weak or reduced against the parent protein; the word gives no strength.

For “phospho-BCL-2 (Ser70) (endogenous, MDA-MB-134-VI) (from UniProt P10415 1-239)”, in assay [1], the binding result is “binds”.

“BCL-2 (endogenous, MDA-MB-134-VI) (from UniProt P10415 1-239)”: in assay [1], the binding entry is on record as “binds”.

As to “BCL-2 (endogenous, MCF-7) (from UniProt P10415 1-239)”, the binding result in assay [2] is listed as “binds”.
